The nature of data set [1]: Fraction unbound in human plasma by ultracentrifugation. It is filed as in vitro ADME.
A short description of data set [2]: Fraction unbound in HLM by ultracentrifugation. Format: in vitro ADME. To be noted: human, pooled human liver microsomes, pH 7.4.
For data set [3] the following is noted: ultracentrifugation; ref Lalloz, et al., 32; cited from earlier work.

Usually fraction unbound stands for the share of the substance not bound to proteins or other matrix. Low values mean extensive binding, high ones weak binding.

Turning to `CCCCc1oc2ccccc2c1C(=O)c1cc(I)c(OCCN(CC)CC)c(I)c1` [AMIO, Amiodarone], the fraction unbound at 2 h in data set [1] was 0.033 ± 0.008; in data set [2], 0.014 ± 0.002. Further, the fu in plasma in data set [3] is 3.7 ± 0.6%.

(Values after article PMC3900249 (Clinical pharmacology and therapeutics, 2012).)
